Measured data: PubChem BioAssay AID504786 (Drosophila RNAi Screening Center, 2011)

Screen: 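Knock-downs reducing HIF reporter induction by the iron chelator DFO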 (primary screen)
Cells: Drosophila S2 cells with a stable HIF luciferase reporter
Reagent: long dsRNA against Drosophila genes, about 0.2 µg dsRNA per well of a 384-well plate
Timing: three days of knock-down, then 20 h of DFO before reading
Conditions: desferrioxamine (DFO) at 100 µM, an iron chelator that mimics hypoxia, for 20 h
Measured: 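HIF reporter luminescence in cells given 100 µM DFO for 20 h, using the mouse ldh-a hypoxia-response element, scored as per-plate z-scores; higher means greater loss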
Reading the numbers: z-score: higher = stronger loss of HIF reporter signal
The screen tested about 21,000 reagents; this is an unselected part of those that have a named target and a result. 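Primary screen; positive scores mean lost reporter signal, so the sign may be inverted from the usual convention.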 A plus sign joins genes that one reagent is predicted to hit.

Target gene	dsRNA	z-score, replicate 1	z-score, replicate 2	z-score, replicate 3	z-score, replicate 4
CG9270	DRSC03182	-0.3	-0.2		
CG17776	DRSC18136	-0.4	-0.3		
crc	DRSC03513	2.9	1		
t-Grip128	DRSC07853	-0.3	-0.3		
Cpr12A	DRSC19722	-0.3	0.2		
ND-42	DRSC16754	-0.1	-0.2		
Ccs	DRSC06692	-0.3	-0.8		
beta4GalNAcTA	DRSC05944	-0.6	-0.4		
CG13033	DRSC09913	-0.2	-0.2		
RpL8	DRSC08532	7.5	6.2		
RpL8	DRSC08695	7.4	6.8		
Ent3	DRSC09822	0.1	0		
hgo	DRSC03544	-0.1	-0.5		
CG5382	DRSC15786	-0.2	0.1		
Muc96D	DRSC13709	-0.5	0.2	-0.2	-0.3
CG7824	DRSC16321	-0.4	0		
CG12355	DRSC09381	0.2	-0.1		
CG12355	DRSC09883	-0.2	-0.1		
PK2-R2	DRSC16448	-0.3	-0.4		
CG16964	DRSC02546	-0.2	-0.8		
GAPsec	DRSC10564	-0.1	-0.2		
CG15097	DRSC06526	5	5.1		
Tfb1	DRSC07082	-0.4	-0.4		
upSET	DRSC11051	2.7	3.8		
Rrp6	DRSC16223	5.6	4.2		
Gem4b + Gem4c	DRSC17294	-0.3	-0.2		
TotB	DRSC15842	0.2	-0.5		
stan	DRSC05234	4.1	4		
stan	DRSC07697	-0.2	-0.4		
CG16813	DRSC02520	-0.2	-0.5		
CG4734	DRSC06885	-0.5	-0.4		

Continued, starting with the last 3 of the part before.
Target gene	dsRNA	z-score, replicate 1	z-score, replicate 2	z-score, replicate 3	z-score, replicate 4
stan	DRSC07697	-0.2	-0.4		
CG16813	DRSC02520	-0.2	-0.5		
CG4734	DRSC06885	-0.5	-0.4		
CG17343	DRSC02606	-0.3	-0.6		
CG14627	DRSC18630	0.6	0.5		
Spn38F	DRSC03616	-0.3	-0.5		
CG6083	DRSC10580	-0.2	-0.2		
Gr8a	DRSC18043	0	-0.6		
HP5	DRSC19773	-0.3	-0.5		
mRpS9	DRSC12645	0.8	0.2		
mRpS9	DRSC15456	0.9	0.4	0.5	2
CG14174	DRSC10175	-0.2	-0.5		
GILT3	DRSC14672	-0.2	0.3		
CG4465	DRSC15584	-1	-0.6		
iPLA2-VIA	DRSC10699	0	0		
Arv1	DRSC11491	-0.4	-0.2		
l(2)k09022	DRSC02108	1.1	3.8		
Syx16	DRSC20507	-0.3	-0.3		
Cyp6w1	DRSC04909	-0.2	-0.5		
Pex19	DRSC02839	-0.2	-0.2		
CG5849	DRSC15893	0.7	-0.4		
CG7458	DRSC11829	-0.4	-0.6	0.3	-0.2
Vml	DRSC17695	0.2	-0.3		
Vml	DRSC18529	-0.1	0		
Tbcd	DRSC00273	-0.3	0		
CSN4	DRSC07350	1.8	1.7		
CG18747	DRSC15384	-0.3	-0.4		
lz	DRSC18790	-0.3	-0.9	0.2	0.1
